Assay results reported in PubChem BioAssay AID1671190 (National Center for Advancing Translational Sciences (NCATS), 2021).
In all, about 580,000 compounds went through this assay and about 6,100 (1.1%) were called active. Inconclusive means that the source gave no clear call. Such entries were picked first, then a sample of the others. Calls follow the shape of the dose curve; as a rule, active = well fitted inhibition curve with a large enough effect; inconclusive = small, poorly fitted or top-dose-only effect, or another doubt; inactive = no such curve, though single readings can be large or run the other way. A potency beside an inconclusive call is a rough fit, not a confirmed value.

Amino acid sequences for entries named in this document (tags omitted).
UniProt P18054, whole entry, looked up: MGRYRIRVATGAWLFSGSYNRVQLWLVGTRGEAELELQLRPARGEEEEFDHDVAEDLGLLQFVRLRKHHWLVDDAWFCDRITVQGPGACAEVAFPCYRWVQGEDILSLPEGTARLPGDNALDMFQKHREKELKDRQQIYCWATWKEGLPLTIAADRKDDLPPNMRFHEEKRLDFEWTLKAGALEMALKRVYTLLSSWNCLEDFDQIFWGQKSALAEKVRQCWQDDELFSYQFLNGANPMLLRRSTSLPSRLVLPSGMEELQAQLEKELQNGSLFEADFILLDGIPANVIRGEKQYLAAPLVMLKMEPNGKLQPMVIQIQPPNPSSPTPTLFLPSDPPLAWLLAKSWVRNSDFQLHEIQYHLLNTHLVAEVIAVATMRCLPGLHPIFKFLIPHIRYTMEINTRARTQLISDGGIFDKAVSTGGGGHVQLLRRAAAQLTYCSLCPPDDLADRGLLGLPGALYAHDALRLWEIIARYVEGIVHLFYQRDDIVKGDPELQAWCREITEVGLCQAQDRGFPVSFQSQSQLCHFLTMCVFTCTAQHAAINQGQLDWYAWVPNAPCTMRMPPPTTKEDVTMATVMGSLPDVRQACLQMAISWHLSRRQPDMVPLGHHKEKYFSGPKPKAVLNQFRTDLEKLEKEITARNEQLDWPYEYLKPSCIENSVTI

biological target: Polyunsaturated fatty acid lipoxygenase ALOX12 (Homo sapiens) (UniProt P18054); assay: Primary qHTS assay for inhibitors of human arachidonate 12S-lipoxygenase (ALOX12): Round 2; settings: purified 12hLO, xylenol orange hydroperoxide absorbance; activity change, negative = inhibition: at 108 µM (top of the series) unless noted
Procedure, shortened: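 Purified human 12hLO at 150 nM in 25 mM Hepes, 0.01% Triton X-100, pH 7.0, preincubated 15 min at room temperature with compound. Reaction started with 40 uM arachidonic acid, 30 min at room temperature. Hydroperoxide measured by Fe-xylenol orange, 573/405 nm absorbance ratio.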
% is scaled to controls: 0 for no effect and ±100 for the full control effect; potency is read from the fitted curve at half-maximal effect.

**Q.** `C=CCn1cc(CN2CCOc3c(O)cc(-c4cccc(Cl)c4)cc3C2)cn1` was tested. Which Potency did it give?
**A.** inconclusive: 25.1 µM [inhibitor, partial curve, poor fit]

**Q.** How did the Potency turn out when `COc1ccccc1-c1cc(=O)c2cc(NS(=O)(=O)c3ccc(Cl)cc3)ccc2o1` was run?
**A.** inconclusive: 17.8 µM [inhibitor, full curve]

**Q.** With `FC(F)(F)c1cccc(/C=C/c2nc3c(ccc4ccccc43)s2)c1` as the compound, how does the Potency read?
**A.** inconclusive: 50.1 µM [inhibitor, partial curve, poor fit]

**Q.** For `Cc1cccc(NC(=O)CN2CCOCC2)c1C`, which Potency is on record?
**A.** inconclusive: 35.5 µM [inhibitor, single point]

**Q.** Which Potency does the source give for `Cc1ccc(SCCC(=O)OCc2cc(C#N)ccc2F)cc1` here?
**A.** inconclusive: 50.1 µM [inhibitor, single point]

**Q.** With `Cc1ccc(CNC(=O)C2CCN(c3nc4ccc(C)cc4[nH]3)CC2)cc1` as the compound, how does the Potency read?
**A.** inactive

**Q.** How did the Potency turn out when `CC(=O)Nc1ccc(CN2C(=O)OC3(CCN(C(=O)c4scnc4C)CC3)C2(C)c2ccccc2)cc1` (stereo not drawn) was run?
**A.** inconclusive: 44.7 µM [inhibitor, full curve, poor fit]

**Q.** Which Potency does the source give for `CC1=Nc2ccccc2N=C(NC(=O)/C=C/C(=O)O)C1c1ccccc1` (stereo not drawn) here?
**A.** inactive

**Q.** For `O=C(CCC[C@H]1NC[C@@H]2C[C@H]1CN(Cc1ccccc1)C2)NCCCn1cccn1`, which Potency is on record?
**A.** inconclusive: 3.16 µM [inhibitor, full curve, poor fit]

**Q.** Which Potency does the source give for `COc1ccc(N2CCN(C(=O)CNC(=O)Cc3ccc(Cl)cc3)CC2)cc1` here?
**A.** active: 31.6 µM

**Q.** With `O=C1OCCN1C(=O)[C@H]1[C@H](c2ccc([N+](=O)[O-])cc2)C(c2ccc(F)cc2)=NN1c1ccccc1` as the compound, how does the Potency read?
**A.** inconclusive: 126 µM [inhibitor, partial curve, poor fit]

**Q.** With `C/C(=N/NC(=O)CNC(=O)c1ccccn1)c1ccccc1` as the compound, how does the Potency read?
**A.** inactive

**Q.** For `CN(C)CCN1CCc2ccccc21`, which Potency is on record?
**A.** inconclusive: 31.6 µM [inhibitor, partial curve, poor fit]

**Q.** `COc1ccc(-c2cc(-c3ccccc3)nc(SCC(=O)Nc3nccs3)c2C#N)cc1` was tested. Which Potency did it give?
**A.** inactive

**Q.** Which Potency does the source give for `CC(C)(C)C(=O)CN1C(=O)C2(OCCO2)c2ccccc21` here?
**A.** inconclusive: 35.5 µM [inhibitor, single point]

**Q.** With `CNC(=O)COC(=O)c1cc(-c2ccc(C)o2)nc2ccccc12` as the compound, how does the Potency read?
**A.** inconclusive: 12.6 µM [inhibitor, partial curve, poor fit]

**Q.** For `CCOC(=O)c1sc(Nc2ccccc2Cl)nc1C`, which Potency is on record?
**A.** active: 28.2 µM

**Q.** Which Potency does the source give for `CCCCCCCCOC(=O)Nc1ccc(C)cc1` here?
**A.** inconclusive: 2.51 µM [inhibitor, full curve, poor fit]

**Q.** With `COc1cc2nc(N3CCN(C(=O)[C@H]4CCCO4)CC3)nc(N)c2cc1OC` as the compound, how does the Potency read?
**A.** inconclusive: 35.5 µM [inhibitor, single point]

**Q.** With `COc1ccc(CNc2ncnc3c2CN(C2CCCNCC2)C(=O)CN3C)cc1` (stereo not drawn) as the compound, how does the Potency read?
**A.** inconclusive: 10 µM [inhibitor, full curve]

**Q.** For `Cc1ccccc1N=C1CCCc2ccccc21`, which Potency is on record?
**A.** inactive

**Q.** How did the Potency turn out when `O=C(c1ccc2c(=O)n3c(nc2c1)CCCCC3)N1CCN(c2ccc(F)cc2)CC1` was run?
**A.** inactive

**Q.** `CCCCC(=O)Nc1cc(C(=O)OCc2cc(=O)n3oc(C)cc3n2)ccc1OC` was tested. Which Potency did it give?
**A.** inconclusive: 126 µM [inhibitor, partial curve, poor fit]

**Q.** With `O=C(COc1ccc(F)cc1)Nc1cccc(OCc2cc(=O)n3ccccc3n2)c1` as the compound, how does the Potency read?
**A.** inconclusive: 79.4 µM [inhibitor, partial curve, poor fit]

**Q.** With `CCc1ccccc1NC(=S)Nn1cnnc1` as the compound, how does the Potency read?
**A.** inconclusive: 44.7 µM [inhibitor, partial curve, poor fit]

**Q.** Which Potency does the source give for `CC(=O)c1ccc(NS(=O)(=O)Cc2ccccc2)cc1` here?
**A.** inactive

**Q.** `CC#CCN1c2ccccc2[C@]23C[C@@H](C(=O)OC)N(C(=O)OCC)C2=NC(C(=O)OC)=C(C(=O)OC)[C@H]13` was tested. Which Potency did it give?
**A.** inconclusive: 0.891 µM [inhibitor, full curve, poor fit]

**Q.** How did the Potency turn out when `CCc1nnc(NS(=O)(=O)c2ccc(N/C=C/C(=O)c3ccc(OC)cc3)cc2)s1` was run?
**A.** inconclusive: 63.1 µM [inhibitor, partial curve, poor fit]

**Q.** With `Cc1nnc(SCc2nc3sc4c(c3c(=O)[nH]2)CCCC4)n(N)c1=O` as the compound, how does the Potency read?
**A.** inconclusive: 50.1 µM [inhibitor, partial curve, poor fit]

**Q.** For `O=C(Oc1cccc(C(=S)N2CCCCC2)c1)c1ccccc1`, which Potency is on record?
**A.** inactive

**Q.** How did the Potency turn out when `Cc1ccc(C)c(S(=O)(=O)N2CCCC2CNC(=O)c2ccc([N+](=O)[O-])cc2)c1` (stereo not drawn) was run?
**A.** inactive

**Q.** For `Cc1ccc2c(c1)c1c(c(=O)n(-c3ccccc3C)c(=O)n1Cc1ccccc1F)n2C`, which Potency is on record?
**A.** inactive

**Q.** For `CCCCSc1nc2c(c(=O)[nH]c(=O)n2C)n1CC(O)COc1ccc(CC)cc1` (stereo not drawn), which Potency is on record?
**A.** inconclusive: 31.6 µM [inhibitor, partial curve, poor fit]

**Q.** With `O=C(CN1C(=O)NC2(CCCC2)C1=O)NCc1ccc(F)cc1` as the compound, how does the activity change, negative = inhibition read?
**A.** inconclusive: -33.1% [inhibitor]

**Q.** Which Potency does the source give for `Cn1c(CNCC2(COc3cccnc3)C[C@@H](O)[C@@H](O)C2)nc2ccccc21` (stereo partly drawn) here?
**A.** inconclusive: 15.8 µM [inhibitor, partial curve, poor fit]

**Q.** For `Cn1c(C(=O)NCc2ccc(Cl)cc2)cc2c(=O)n(C)c3ccccc3c21`, which Potency is on record?
**A.** inactive

**Q.** With `NNC(=O)c1cc2ccccc2cc1O` as the compound, how does the Potency read?
**A.** inactive

**Q.** For `CC(C)c1ccc(/C=N/N2CCN(c3ccccn3)CC2)cc1`, which Potency is on record?
**A.** inconclusive: 100 µM [inhibitor, partial curve, poor fit]

**Q.** Which Potency does the source give for `COc1ccc(-c2cc(C(=O)O)c3cc(C)ccc3n2)cc1` here?
**A.** inconclusive: 44.7 µM [inhibitor, partial curve, poor fit]

**Q.** `CC(=O)NC1=NN(C(C)=O)C(c2ccccc2OCc2ccccc2Cl)S1` (stereo not drawn) was tested. Which Potency did it give?
**A.** inactive

**Q.** Which Potency does the source give for `CSc1ccc(CN(C)CCc2ccccn2)cc1` here?
**A.** inactive

**Q.** With `CCOc1ccc(Cl)cc1S(=O)(=O)n1cnc2ccccc21` as the compound, how does the Potency read?
**A.** inconclusive: 112 µM [inhibitor, partial curve, poor fit]

**Q.** Which Potency does the source give for `CCN1CCN(S(=O)(=O)c2ccc(Cl)c(C(=O)NCCOc3ccc(C)cc3)c2)CC1` here?
**A.** inconclusive: 50.1 µM [inhibitor, partial curve, poor fit]
